From US10314308B2, “Microbiocidal benzoxaboroles” (SYNGENTA PARTICIPATIONS AG, priority 2015, dated 2019)
Some results were stated once for a whole list of compounds, not compound by compound.

Experiments:
Alternaria Solani = assay: Alternaria solani / tomato / leaf disc (early blight); assay type: in vivo; details: 200 ppm; tomato leaf disks cv. Baby, inoculated 2 days after application; assessed 5-7 days after application
[1] = system: Puccinia Recondita f. sp. Tritici; assay: Puccinia recondita f. sp. tritici / wheat / leaf disc curative (brown rust); assay type: in vivo; details: 200 ppm, wheat leaf segments cv. Kanzler, applied 1 day after inoculation, assessed 6-8 days after application

Row | SMILES | disease control (Alternaria Solani) | disease control [1]
1 | OB1OCc2cc(F)c(-c3ccco3)cc21 [Compound 5] | at least 80% | 
2 | OB1OCc2cc(Cl)c(-c3cncs3)cc21 [Compound 25] |  | at least 80%
3 | OB1OCc2cc(F)c(-c3ncno3)cc21 [Compound 29] |  | at least 80%
4 | OB1OCc2cc(F)c(-c3cncc(Cl)n3)cc21 [Compound 57] | at least 80% | at least 80%
5 | OB1OCc2cc(F)c(-c3ccoc3)cc21 [Compound 75] | at least 80% | 
6 | OB1OCc2ccc(-c3ncon3)cc21 [Compound 92] | at least 80% | 
7 | OB1OCc2cc(F)c(-c3ncon3)cc21 [Compound 97] |  | at least 80%
